Read-outs that look alike come from different tables or passages of the source. This continues a long series; more values of the same kind are listed elsewhere.
Conditions: for Median CAB: plasma, median of treated macaques

With `C[C@H]1CO[C@@H]2Cn3cc(C(=O)NCc4ccc(F)cc4F)c(=O)c(O)c3C(=O)N12` [CAB, cabotegravir] the “Plasma CAB concentration” value (macaque 01D520, day 4) was 0.009 µg/mL, the “Plasma CAB concentration” value (macaque 01D520, day 11) was 0.009 µg/mL and the “Plasma CAB concentration” value (macaque 01D520, day 115) was 0.125 µg/mL. The “Plasma CAB concentration” value (macaque 01D520, day 120) was 0.049 µg/mL, the “Plasma CAB concentration” value (macaque 01D520, day 127) was 0.009 µg/mL and the “Plasma CAB concentration” value (macaque 01D520, day 134) was 0.009 µg/mL. The “Plasma CAB concentration” value (macaque 01D520, day 143) was 0.009 µg/mL, the “Plasma CAB concentration” value (macaque 01D520, day 148) was 0.009 µg/mL and the “Plasma CAB concentration” value (macaque 01D520, day 155) was 0.009 µg/mL. For the same molecule, the “Plasma CAB concentration” value (macaque 01D520, day 162) was 0.009 µg/mL, the “Plasma CAB concentration” value (macaque 01D520, day 170) was 0.009 µg/mL and the “Plasma CAB concentration” value (macaque 01D520, day 176) was 0.009 µg/mL. The “Plasma CAB concentration” value (macaque 01D520, day 183) was 0.009 µg/mL, the “Plasma CAB concentration” value (macaque 01D520, day 190) was 0.009 µg/mL and the “Plasma CAB concentration” value (macaque 01D520, day 197) was 0.009 µg/mL. The “Plasma CAB concentration” value (macaque 01D520, day 204) was 0.009 µg/mL, the “Plasma CAB concentration” value (macaque 10D181, day 4) was 0.009 µg/mL and the “Plasma CAB concentration” value (macaque 10D181, day 11) was 0.009 µg/mL. For the same molecule, the “Plasma CAB concentration” value (macaque 10D181, day 115) was 0.092 µg/mL, the “Plasma CAB concentration” value (macaque 10D181, day 120) was 0.063 µg/mL and the “Plasma CAB concentration” value (macaque 10D181, day 127) was 0.0297 µg/mL. The “Plasma CAB concentration” value (macaque 10D181, day 134) was 0.02 µg/mL, the “Plasma CAB concentration” value (macaque 10D181, day 143) was 0.01 µg/mL and the “Plasma CAB concentration” value (macaque 10D181, day 148) was 0.009 µg/mL. For the same molecule, the “Plasma CAB concentration” value (macaque 10D181, day 155) was 0.009 µg/mL, the “Plasma CAB concentration” value (macaque 10D181, day 162) was 0.009 µg/mL and the “Plasma CAB concentration” value (macaque 10D181, day 170) was 0.009 µg/mL. For the same molecule, the “Plasma CAB concentration” value (macaque 10D181, day 176) was 0.009 µg/mL, the “Plasma CAB concentration” value (macaque 10D181, day 183) was 0.009 µg/mL and the “Plasma CAB concentration” value (macaque 10D181, day 190) was 0.009 µg/mL. The “Plasma CAB concentration” value (macaque 10D181, day 197) was 0.009 µg/mL, the “Plasma CAB concentration” value (macaque 10D181, day 204) was 0.009 µg/mL and the “Plasma CAB concentration” value (macaque 33996, day 4) was 0.009 µg/mL. The “Plasma CAB concentration” value (macaque 33996, day 11) was 0.009 µg/mL, the “Plasma CAB concentration” value (macaque 33996, day 115) was 0.342 µg/mL and the “Plasma CAB concentration” value (macaque 33996, day 120) was 0.269 µg/mL. The “Plasma CAB concentration” value (macaque 33996, day 127) was 0.188 µg/mL, the “Plasma CAB concentration” value (macaque 33996, day 134) was 0.116 µg/mL and the “Plasma CAB concentration” value (macaque 33996, day 143) was 0.069 µg/mL. The “Plasma CAB concentration” value (macaque 33996, day 148) was 0.055 µg/mL, the “Plasma CAB concentration” value (macaque 33996, day 155) was 0.0376 µg/mL and the “Plasma CAB concentration” value (macaque 33996, day 162) was 0.024 µg/mL. For the same molecule, the “Plasma CAB concentration” value (macaque 33996, day 170) was 0.015 µg/mL, the “Plasma CAB concentration” value (macaque 33996, day 176) was 0.011 µg/mL and the “Plasma CAB concentration” value (macaque 33996, day 183) was 0.009 µg/mL. For the same molecule, the “Plasma CAB concentration” value (macaque 33996, day 190) was 0.009 µg/mL, the “Plasma CAB concentration” value (macaque 33996, day 197) was 0.009 µg/mL and the “Plasma CAB concentration” value (macaque 33996, day 204) was 0.009 µg/mL. For the same molecule, the “Plasma CAB concentration” value (macaque 35451, day 4) was 0.009 µg/mL, the “Plasma CAB concentration” value (macaque 35451, day 11) was 0.009 µg/mL and the “Plasma CAB concentration” value (macaque 35451, day 115) was 1.08 µg/mL. The “Plasma CAB concentration” value (macaque 35451, day 120) was 0.77 µg/mL, the “Plasma CAB concentration” value (macaque 35451, day 127) was 0.566 µg/mL and the “Plasma CAB concentration” value (macaque 35451, day 134) was 0.463 µg/mL. The “Plasma CAB concentration” value (macaque 35451, day 143) was 0.366 µg/mL, the “Plasma CAB concentration” value (macaque 35451, day 148) was 0.319 µg/mL and the “Plasma CAB concentration” value (macaque 35451, day 155) was 0.221 µg/mL. For the same molecule, the “Plasma CAB concentration” value (macaque 35451, day 162) was 0.234 µg/mL, the “Plasma CAB concentration” value (macaque 35451, day 170) was 0.147 µg/mL and the “Plasma CAB concentration” value (macaque 35451, day 176) was 0.124 µg/mL. The “Plasma CAB concentration” value (macaque 35451, day 183) was 0.089 µg/mL, the “Plasma CAB concentration” value (macaque 35451, day 190) was 0.072 µg/mL and the “Plasma CAB concentration” value (macaque 35451, day 197) was 0.052 µg/mL. The “Plasma CAB concentration” value (macaque 35451, day 204) was 0.046 µg/mL, the “Plasma CAB concentration” value (macaque CH54, day 4) was 0.009 µg/mL and the “Plasma CAB concentration” value (macaque CH54, day 11) was 0.009 µg/mL. For the same molecule, the “Plasma CAB concentration” value (macaque CH54, day 115) was 0.413 µg/mL, the “Plasma CAB concentration” value (macaque CH54, day 120) was 0.244 µg/mL and the “Plasma CAB concentration” value (macaque CH54, day 127) was 0.135 µg/mL. For the same molecule, the “Plasma CAB concentration” value (macaque CH54, day 134) was 0.0669 µg/mL, the “Plasma CAB concentration” value (macaque CH54, day 143) was 0.027 µg/mL and the “Plasma CAB concentration” value (macaque CH54, day 148) was 0.0162 µg/mL. The “Plasma CAB concentration” value (macaque CH54, day 155) was 0.009 µg/mL, the “Plasma CAB concentration” value (macaque CH54, day 162) was 0.009 µg/mL and the “Plasma CAB concentration” value (macaque CH54, day 170) was 0.009 µg/mL. For the same molecule, the “Plasma CAB concentration” value (macaque CH54, day 176) was 0.009 µg/mL, the “Plasma CAB concentration” value (macaque CH54, day 183) was 0.009 µg/mL and the “Plasma CAB concentration” value (macaque CH54, day 190) was 0.009 µg/mL. For the same molecule, the “Plasma CAB concentration” value (macaque CH54, day 197) was 0.009 µg/mL, the “Plasma CAB concentration” value (macaque CH54, day 204) was 0.009 µg/mL and the “Plasma CAB concentration” value (macaque CJ92, day 4) was 0.009 µg/mL. For the same molecule, the “Plasma CAB concentration” value (macaque CJ92, day 11) was 0.009 µg/mL, the “Plasma CAB concentration” value (macaque CJ92, day 115) was 0.992 µg/mL and the “Plasma CAB concentration” value (macaque CJ92, day 120) was 0.738 µg/mL. The “Plasma CAB concentration” value (macaque CJ92, day 127) was 0.715 µg/mL, the “Plasma CAB concentration” value (macaque CJ92, day 134) was 0.631 µg/mL and the “Plasma CAB concentration” value (macaque CJ92, day 143) was 0.446 µg/mL. The “Plasma CAB concentration” value (macaque CJ92, day 148) was 0.361 µg/mL, the “Plasma CAB concentration” value (macaque CJ92, day 155) was 0.347 µg/mL and the “Plasma CAB concentration” value (macaque CJ92, day 162) was 0.307 µg/mL. For the same molecule, the “Plasma CAB concentration” value (macaque CJ92, day 170) was 0.232 µg/mL, the “Plasma CAB concentration” value (macaque CJ92, day 176) was 0.151 µg/mL and the “Plasma CAB concentration” value (macaque CJ92, day 183) was 0.088 µg/mL. The “Plasma CAB concentration” value (macaque CJ92, day 190) was 0.07 µg/mL, the “Plasma CAB concentration” value (macaque CJ92, day 197) was 0.0499 µg/mL and the “Plasma CAB concentration” value (macaque CJ92, day 204) was 0.0404 µg/mL. The “Median CAB” value (day 4) was 0.009 µg/mL, the “Median CAB” value (day 11) was 0.009 µg/mL and the “Median CAB” value (day 115) was 0.3775 µg/mL. The “Median CAB” value (day 120) was 0.2565 µg/mL, the “Median CAB” value (day 127) was 0.1615 µg/mL and the “Median CAB” value (day 134) was 0.09145 µg/mL. For the same molecule, the “Median CAB” value (day 143) was 0.048 µg/mL, the “Median CAB” value (day 148) was 0.0356 µg/mL and the “Median CAB” value (day 155) was 0.0233 µg/mL. The “Median CAB” value (day 162) was 0.0165 µg/mL, the “Median CAB” value (day 170) was 0.012 µg/mL and the “Median CAB” value (day 176) was 0.01 µg/mL. The “Median CAB” value (day 183) was 0.009 µg/mL, the “Median CAB” value (day 190) was 0.009 µg/mL and the “Median CAB” value (day 197) was 0.009 µg/mL. For the same molecule, the “Median CAB” value (day 204) was 0.009 µg/mL.

Reference: PMC6494879, “Drug resistance emergence in macaques administered cabotegravir long-acting for pre-exposure prophylaxis during acute SHIV infection” (Nature Communications, 2019)
